Earlier results as cited in patent US9579299B2, “CNS pharmaceutical compositions and methods of use” (TARGIA PHARMACEUTICALS, priority 2008, dated 2017).

Conditions: CNS active agent; cited from earlier work

## CN1C(=O)CN=C(c2ccccc2)c2cc(Cl)ccc21 [Diazepam]
  Tmax: 30 to 90 min
